Results are given in words; binding and its absence hold for the method and conditions named. Some entries that bind do so weakly or less than the wild type. For part of these data: Sequences can lack the tags named with a protein. Blank lines part the entries; values can stand above or below the binder they belong to.
How the values were obtained:
human CD166Fc (human) = biological target: T1, human CD166Fc (human) (UniProt Q13740); experiment: ELISA, CD6-Fc coated at 2-16 ug/mL, CD166Fc in solution, anti-CD166 detection
T1 sequence (looked up): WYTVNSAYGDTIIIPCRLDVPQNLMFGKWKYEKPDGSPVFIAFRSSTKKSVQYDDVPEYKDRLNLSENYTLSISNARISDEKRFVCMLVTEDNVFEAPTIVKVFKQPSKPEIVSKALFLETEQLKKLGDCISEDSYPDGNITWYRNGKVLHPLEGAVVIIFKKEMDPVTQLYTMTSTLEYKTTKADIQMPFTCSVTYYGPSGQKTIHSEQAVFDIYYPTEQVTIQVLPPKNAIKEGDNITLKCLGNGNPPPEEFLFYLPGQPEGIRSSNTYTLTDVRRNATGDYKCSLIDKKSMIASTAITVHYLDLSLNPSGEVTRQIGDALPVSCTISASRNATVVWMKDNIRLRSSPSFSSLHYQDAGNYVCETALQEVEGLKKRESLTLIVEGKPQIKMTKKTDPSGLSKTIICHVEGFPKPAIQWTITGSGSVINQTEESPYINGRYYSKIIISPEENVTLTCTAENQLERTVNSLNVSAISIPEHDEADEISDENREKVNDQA

[1] = biological target: T2, full length human CD166 protein (recombinant) (human) (UniProt Q13740); experiment: ELISA, CD6-Fc coated at 2-16 ug/mL, full length CD166 in solution, anti-CD166 detection
T2 sequence (looked up): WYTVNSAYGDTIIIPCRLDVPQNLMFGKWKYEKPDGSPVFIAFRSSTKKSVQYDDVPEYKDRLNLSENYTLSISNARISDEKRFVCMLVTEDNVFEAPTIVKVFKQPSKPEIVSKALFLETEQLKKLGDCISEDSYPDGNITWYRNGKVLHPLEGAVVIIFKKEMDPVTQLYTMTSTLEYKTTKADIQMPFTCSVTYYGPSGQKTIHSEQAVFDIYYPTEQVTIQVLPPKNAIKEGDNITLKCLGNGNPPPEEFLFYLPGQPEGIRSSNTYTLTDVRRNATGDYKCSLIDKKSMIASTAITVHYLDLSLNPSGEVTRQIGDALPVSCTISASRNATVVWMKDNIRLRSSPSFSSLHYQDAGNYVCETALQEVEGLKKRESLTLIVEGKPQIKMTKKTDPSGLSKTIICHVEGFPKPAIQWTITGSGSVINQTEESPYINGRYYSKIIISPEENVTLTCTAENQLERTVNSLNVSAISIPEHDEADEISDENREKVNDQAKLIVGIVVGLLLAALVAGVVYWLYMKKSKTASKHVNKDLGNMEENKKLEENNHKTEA

[2] = biological target: T3, ILT3Fc (water-soluble recombinant protein: extracellular domain of human ILT3 affixed to the Fc portion of an immunoglobulin) (human) (UniProt Q8NHJ6+P01857); experiment: ELISA, plates coated with 2, 4, 8, 16 ug/ml ILT3Fc, CD166-Fc added, detected with anti-CD166 antibody
human CD6-Fc (human) [3] = biological target: T4, human CD6-Fc (human) (UniProt P30203); experiment: ELISA, plates coated with 2, 4, 8, 16 ug/ml CD6-Fc (positive control), CD166-Fc added, detected with anti-CD166 antibody
T4 sequence (looked up): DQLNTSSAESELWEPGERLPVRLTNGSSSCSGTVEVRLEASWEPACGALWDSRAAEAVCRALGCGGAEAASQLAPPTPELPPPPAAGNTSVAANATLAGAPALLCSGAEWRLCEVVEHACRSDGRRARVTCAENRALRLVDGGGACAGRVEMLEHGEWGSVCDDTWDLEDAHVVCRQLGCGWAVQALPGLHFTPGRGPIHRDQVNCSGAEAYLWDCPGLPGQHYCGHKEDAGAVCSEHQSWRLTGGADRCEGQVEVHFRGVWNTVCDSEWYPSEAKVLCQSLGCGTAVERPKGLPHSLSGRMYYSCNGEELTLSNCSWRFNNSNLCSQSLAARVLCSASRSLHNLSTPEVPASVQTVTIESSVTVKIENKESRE

[4] = biological target: T3, ILT3Fc (water-soluble recombinant protein: extracellular domain of human ILT3 affixed to the Fc portion of an immunoglobulin) (human); experiment: ELISA, plates coated with 2, 4, 8, 16 ug/ml ILT3Fc, recombinant full length CD166 added, detected with anti-CD166 antibody
human CD6-Fc (human) [5] = biological target: T4, human CD6-Fc (human); experiment: ELISA, plates coated with 2, 4, 8, 16 ug/ml CD6-Fc (positive control), recombinant full length CD166 added, detected with anti-CD166 antibody

- binding (human CD166Fc (human)): binds
- binding [1]: binds
B1: human CD6-Fc (Fc fusion, UniProt P30203 25-398, looked up, not shown: a dimerising Fc or GST)
chain: DQLNTSSAESELWEPGERLPVRLTNGSSSCSGTVEVRLEASWEPACGALWDSRAAEAVCRALGCGGAEAASQLAPPTPELPPPPAAGNTSVAANATLAGAPALLCSGAEWRLCEVVEHACRSDGRRARVTCAENRALRLVDGGGACAGRVEMLEHGEWGSVCDDTWDLEDAHVVCRQLGCGWAVQALPGLHFTPGRGPIHRDQVNCSGAEAYLWDCPGLPGQHYCGHKEDAGAVCSEHQSWRLTGGADRCEGQVEVHFRGVWNTVCDSEWYPSEAKVLCQSLGCGTAVERPKGLPHSLSGRMYYSCNGEELTLSNCSWRFNNSNLCSQSLAARVLCSASRSLHNLSTPEVPASVQTVTIESSVTVKIENKESRE

- binding [2]: binds
- binding (human CD6-Fc (human) [3]): binds
B2: human CD166Fc (Fc fusion, UniProt Q13740 28-526, looked up, not shown: a dimerising Fc or GST)
chain: WYTVNSAYGDTIIIPCRLDVPQNLMFGKWKYEKPDGSPVFIAFRSSTKKSVQYDDVPEYKDRLNLSENYTLSISNARISDEKRFVCMLVTEDNVFEAPTIVKVFKQPSKPEIVSKALFLETEQLKKLGDCISEDSYPDGNITWYRNGKVLHPLEGAVVIIFKKEMDPVTQLYTMTSTLEYKTTKADIQMPFTCSVTYYGPSGQKTIHSEQAVFDIYYPTEQVTIQVLPPKNAIKEGDNITLKCLGNGNPPPEEFLFYLPGQPEGIRSSNTYTLTDVRRNATGDYKCSLIDKKSMIASTAITVHYLDLSLNPSGEVTRQIGDALPVSCTISASRNATVVWMKDNIRLRSSPSFSSLHYQDAGNYVCETALQEVEGLKKRESLTLIVEGKPQIKMTKKTDPSGLSKTIICHVEGFPKPAIQWTITGSGSVINQTEESPYINGRYYSKIIISPEENVTLTCTAENQLERTVNSLNVSAISIPEHDEADEISDENREKVNDQA

- binding [4]: binds
- binding (human CD6-Fc (human) [5]): binds
B3: full length human CD166 protein (recombinant) (receptor, UniProt Q13740 28-583, looked up)
chain: WYTVNSAYGDTIIIPCRLDVPQNLMFGKWKYEKPDGSPVFIAFRSSTKKSVQYDDVPEYKDRLNLSENYTLSISNARISDEKRFVCMLVTEDNVFEAPTIVKVFKQPSKPEIVSKALFLETEQLKKLGDCISEDSYPDGNITWYRNGKVLHPLEGAVVIIFKKEMDPVTQLYTMTSTLEYKTTKADIQMPFTCSVTYYGPSGQKTIHSEQAVFDIYYPTEQVTIQVLPPKNAIKEGDNITLKCLGNGNPPPEEFLFYLPGQPEGIRSSNTYTLTDVRRNATGDYKCSLIDKKSMIASTAITVHYLDLSLNPSGEVTRQIGDALPVSCTISASRNATVVWMKDNIRLRSSPSFSSLHYQDAGNYVCETALQEVEGLKKRESLTLIVEGKPQIKMTKKTDPSGLSKTIICHVEGFPKPAIQWTITGSGSVINQTEESPYINGRYYSKIIISPEENVTLTCTAENQLERTVNSLNVSAISIPEHDEADEISDENREKVNDQAKLIVGIVVGLLLAALVAGVVYWLYMKKSKTASKHVNKDLGNMEENKKLEENNHKTEA
